Test results: article PMC8212425 (Translational Vision Science & Technology, 2021)

Key:
[1] = assay type: in vivo, New Zealand White rabbits; details: 1 mg/eye, NZW rabbits
[2] = system: VEGFR2; details: in vitro VEGFR2 autophosphorylation inhibition assay; cited from earlier work
[3] = system: VEGFR-1; details: cited from earlier work
[4] = system: VEGFR-2; details: cited from earlier work
[5] = system: VEGFR-3; details: cited from earlier work

Fold higher AUC0-t (exposure) in PEC, SC versus IVT [1]: 11 fold
Fold higher Cmax in PEC, SC versus IVT [1]: 6.4 fold
Compound: CNC(=O)c1ccccc1Sc1ccc2c(/C=C/c3ccccn3)n[nH]c2c1 [Axitinib]
50% inhibitory concentration value [2]: 0.2 ng/mL
Inhibitory concentration [3]: picomolar
Inhibitory concentration [4]: picomolar
Inhibitory concentration [5]: picomolar
